# Experimental data taken from PMC7862700.
# By UniProt entry, the sequences of proteins in these tests, tags left out. Where a name states a change or a piece, a line headed by the entry shows the natural chain unless it says otherwise.
# UniProt P32519: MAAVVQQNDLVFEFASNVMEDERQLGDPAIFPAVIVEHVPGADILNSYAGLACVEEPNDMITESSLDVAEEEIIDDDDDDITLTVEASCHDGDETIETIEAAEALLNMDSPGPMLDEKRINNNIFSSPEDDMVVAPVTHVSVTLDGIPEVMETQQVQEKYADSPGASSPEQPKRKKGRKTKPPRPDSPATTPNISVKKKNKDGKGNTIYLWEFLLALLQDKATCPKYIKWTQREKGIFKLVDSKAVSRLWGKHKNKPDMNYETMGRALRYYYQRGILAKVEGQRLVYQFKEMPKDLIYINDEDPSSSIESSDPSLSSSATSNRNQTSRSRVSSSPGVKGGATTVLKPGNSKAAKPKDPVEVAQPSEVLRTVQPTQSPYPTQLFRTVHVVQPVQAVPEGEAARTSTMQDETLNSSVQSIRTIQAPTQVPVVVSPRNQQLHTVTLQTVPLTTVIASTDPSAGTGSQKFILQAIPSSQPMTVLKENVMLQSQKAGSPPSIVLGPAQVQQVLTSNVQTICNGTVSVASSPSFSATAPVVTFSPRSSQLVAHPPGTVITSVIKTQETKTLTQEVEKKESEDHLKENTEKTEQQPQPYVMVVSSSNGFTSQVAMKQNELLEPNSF
# UniProt P50549: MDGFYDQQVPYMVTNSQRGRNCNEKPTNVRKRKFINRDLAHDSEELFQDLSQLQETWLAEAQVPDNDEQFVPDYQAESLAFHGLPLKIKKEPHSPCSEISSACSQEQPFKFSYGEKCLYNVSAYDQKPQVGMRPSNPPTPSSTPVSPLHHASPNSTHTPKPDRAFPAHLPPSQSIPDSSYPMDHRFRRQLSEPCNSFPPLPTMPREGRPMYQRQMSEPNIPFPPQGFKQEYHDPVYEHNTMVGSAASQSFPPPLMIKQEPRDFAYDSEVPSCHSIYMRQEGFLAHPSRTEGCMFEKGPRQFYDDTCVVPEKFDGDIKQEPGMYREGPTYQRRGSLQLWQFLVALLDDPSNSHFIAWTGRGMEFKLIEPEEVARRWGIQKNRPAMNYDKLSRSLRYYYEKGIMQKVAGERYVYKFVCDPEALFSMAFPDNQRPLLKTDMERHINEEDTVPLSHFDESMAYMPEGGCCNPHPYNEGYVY
# The list shows a part of the results, in another mix than the full data. For some assays here: At the low end of the ranking, values are background and their order means little. This is one part of the list. For some assays here: The source does not settle which construct or isoform was used.
# Key:
# Assay in all cases: DAPPL (digital affinity profiling via proximity ligation, sequencing)
# Conditions in all cases: 10 mM Tris-HCl pH 7.5, 50 mM NaCl, 1 mM DTT, 4% glycerol, room temperature, 30 min; GST-TFs on glutathione beads, 16-mer random dsDNA library, 0.1% …; high values mean tight binding; double strand, one strand shown; scale: fold enrichment (6-mer frequency, TF over GST control)
# [1] = biological target: T1, ERG (UniProt P11308)
# T1 sequence: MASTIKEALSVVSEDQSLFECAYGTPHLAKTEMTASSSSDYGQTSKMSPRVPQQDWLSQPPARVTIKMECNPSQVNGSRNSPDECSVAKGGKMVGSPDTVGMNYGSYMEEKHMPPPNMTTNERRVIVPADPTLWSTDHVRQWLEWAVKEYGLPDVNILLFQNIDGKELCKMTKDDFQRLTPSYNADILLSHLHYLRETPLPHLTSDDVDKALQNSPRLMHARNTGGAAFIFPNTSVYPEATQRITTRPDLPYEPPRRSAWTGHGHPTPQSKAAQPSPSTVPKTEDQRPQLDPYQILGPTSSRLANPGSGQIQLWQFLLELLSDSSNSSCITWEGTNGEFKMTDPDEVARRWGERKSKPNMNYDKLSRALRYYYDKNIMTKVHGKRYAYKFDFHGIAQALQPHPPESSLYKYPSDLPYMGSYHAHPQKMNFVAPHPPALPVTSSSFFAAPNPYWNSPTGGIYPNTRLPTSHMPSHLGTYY
# [2] = biological target: ELF1 (UniProt P32519)
# [3] = biological target: T2, ETV4 (UniProt P43268)
# T2 sequence: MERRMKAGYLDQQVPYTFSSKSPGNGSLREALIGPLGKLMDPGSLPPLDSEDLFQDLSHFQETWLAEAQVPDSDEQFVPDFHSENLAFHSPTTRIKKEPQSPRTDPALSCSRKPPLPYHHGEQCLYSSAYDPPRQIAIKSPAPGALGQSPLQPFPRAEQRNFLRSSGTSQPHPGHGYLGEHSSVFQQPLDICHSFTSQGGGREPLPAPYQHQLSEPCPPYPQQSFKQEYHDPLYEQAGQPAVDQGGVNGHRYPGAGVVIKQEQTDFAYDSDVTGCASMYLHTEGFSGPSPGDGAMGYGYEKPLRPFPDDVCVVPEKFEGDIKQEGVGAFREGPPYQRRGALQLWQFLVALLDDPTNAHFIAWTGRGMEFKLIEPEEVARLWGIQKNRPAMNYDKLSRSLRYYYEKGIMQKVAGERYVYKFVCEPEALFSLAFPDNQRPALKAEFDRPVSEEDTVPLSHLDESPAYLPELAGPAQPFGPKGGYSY
# [4] = biological target: ETV1 (UniProt P50549)
# [5] = biological target: T3, ERF (UniProt P50548)
# T3 sequence: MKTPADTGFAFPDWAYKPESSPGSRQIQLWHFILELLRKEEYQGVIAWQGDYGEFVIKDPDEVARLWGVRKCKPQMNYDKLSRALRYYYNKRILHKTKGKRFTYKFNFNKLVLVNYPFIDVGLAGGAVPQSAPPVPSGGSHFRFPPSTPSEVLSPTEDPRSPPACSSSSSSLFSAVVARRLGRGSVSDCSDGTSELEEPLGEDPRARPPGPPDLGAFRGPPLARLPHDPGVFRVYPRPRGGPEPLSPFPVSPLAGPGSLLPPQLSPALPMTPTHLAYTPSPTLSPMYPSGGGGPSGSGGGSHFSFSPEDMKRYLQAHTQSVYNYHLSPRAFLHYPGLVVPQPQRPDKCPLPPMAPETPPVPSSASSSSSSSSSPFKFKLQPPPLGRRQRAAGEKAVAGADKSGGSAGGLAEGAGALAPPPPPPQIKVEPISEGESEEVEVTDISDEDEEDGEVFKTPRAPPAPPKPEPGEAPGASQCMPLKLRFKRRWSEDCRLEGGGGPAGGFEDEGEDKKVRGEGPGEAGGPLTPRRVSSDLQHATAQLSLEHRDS
Sequence,binding signal [1],binding signal [2],binding signal [3],binding signal [4],binding signal [5]
TTTCTC,1.54,1.62,1.65,,
TTCCAG,1,1.02,1.12,,
CTATAT,1.34,1.5,1.38,,
TGCCCG,1.19,1.2,1.11,,
TGTTAA,1.11,1.09,1.1,,
CAGGAT,1.2,1.14,1.22,,
TCCGAC,1.46,1.42,1.46,,
TTTCAG,1.3,1.31,1.28,,
AAAGAA,1.27,1.28,1.22,,
GACTCT,1.34,1.37,1.38,,
GTTTCG,1.25,1.27,1.31,,
TTGTAC,1.33,1.41,1.54,,
ATCCTG,1.62,1.36,1.4,,
TTAGTA,,,1.11,1.11,
TCACAG,0.971,1.06,1.04,,
CACTTC,4.19,3.41,4.07,,

# Quoted from the listing.
# TTTCTC | binding signal [1]: 1.54
# TGCCCG | binding signal [2]: 1.2

# (next part)

Sequence,binding signal [1],binding signal [2],binding signal [3],binding signal [4],binding signal [5]
CTCTAG,1.25,1.38,1.37,,
TCTCGC,,,1.85,1.75,
CTGGGT,,,1.11,0.997,
AGGAAA,1.62,1.27,1.3,,1.34
GCTCCA,,,1.17,1.12,
CGAATA,1.07,1.28,1.1,,1.19
ATTTTT,1.1,1.14,1.06,,
ATAATT,1.4,1.27,1.22,,
ACTGGC,1.11,1.18,1.17,,
CCGCCC,1.29,1.35,1.31,,
AAGTCA,1.26,1.17,1.19,,
TGCACG,1.03,1.16,1.12,,1.11
GAAATC,1.65,1.36,1.4,,1.31
CTCCTG,,,1.67,1.79,
TTTATT,1.26,1.19,1.22,,
